For part of these data: Expression values are those of the mRNA of the gene that encodes the peptide; a gene is named only where it was looked up.
How the values were obtained:
[1] = test system: ovarian cancer tissue samples; test: Identification of tumor associated peptides presented on the cell surface (HLA immunoprecipitation, LC-MS); presentation across tumor types; parameters: species or system human; details: tumor types on which the peptide was found presented (HLA immunoprecipitation, LC-MS); abbreviations in table footnote
[2] = test system: source genes in OC tumors compared to a panel of normal tissues; test: Expression profiling of genes encoding the peptides (RNAseq), expression scores; parameters: species or system human; key: very highly over-expressed in OC tumors compared to a panel of normal tissues (+++); highly over-expressed in OC tumors compared to a panel of normal tissues (++); over-expressed in OC tumors compared to a panel of normal tissues (+); details: expression score of source gene

| Substance | Peptide Presentation on tumor types [1] | Gene Expression [2] |
| --- | --- | --- |
| 335: peptide found in MUC16 (gene looked up) (HPDPVGPGL; listed as Homo sapiens) [compound 335] | NSCLC, UEC | +++ |
| 288: peptide found in LILRB4 (gene looked up) (SPVTSVHGGTY; listed as Homo sapiens) [compound 288] | NHL | + |
| 246: peptide found in CCR5 (gene looked up) (RYLAVVHAVF; listed as Homo sapiens) [compound 246] | HCC, NHL, NSCLC, PACA, SCLC | + |
| 320: peptide found in LILRB4 (gene looked up) (FPMSPVTSV; listed as Homo sapiens) [compound 320] | AML, BRCA, CCC, CRC, GBC, GBM, GC, HCC, HNSCC, MEL, NHL, NSCLC, OSCAR, PACA, PRCA, RCC, SCLC, UBC, UEC | + |
| 299: peptide found in BCAT1 (gene looked up) (HPGSSALHY; listed as Homo sapiens) [compound 299] | AML, CCC, CRC, GC, HNSCC, MEL, NHL, NSCLC, OSCAR, PACA, PRCA, RCC, UEC | ++ |
| 118: peptide found in CD70 (gene looked up) (SPASRSISL; listed as Homo sapiens) [compound 118] | NHL, OSCAR, RCC | ++ |
| 196: peptide found in MMP12 (gene looked up) (REMPGGPVW; listed as Homo sapiens) [compound 196] | BRCA, CCC, CRC, GC, HCC, HNSCC, MEL, NHL, NSCLC, OSCAR, PACA, SCLC, UBC, UEC | +++ |
| 16: peptide found in MYO3B (gene looked up) (IYSPQFSRL; listed as Homo sapiens) [compound 16] | BRCA, NHL, NSCLC, OSCAR, UBC, UEC | +++ |
| 92: peptide found in EYA2 (gene looked up) (SVFPIENIY; listed as Homo sapiens) [compound 92] | UEC | ++ |
| 62: peptide found in CRABP2 (gene looked up) (KVLGVNVML; listed as Homo sapiens) [compound 62] | BRCA, HNSCC, MEL, NSCLC, SCLC | ++ |
| 308: peptide found in ESR1 (gene looked up) (YPEGAAYEF; listed as Homo sapiens) [compound 308] | PRCA, UEC | +++ |
| 269: peptide found in MELK (gene looked up) (RLKGDAWVYK; listed as Homo sapiens) [compound 269] | MEL, NHL, OSCAR, UEC | ++ |
| 416: peptide found in MELK (gene looked up) (SEEETRVVF; listed as Homo sapiens) [compound 416] | AML, CRC, HNSCC, NSCLC, UEC | ++ |
| 247: peptide found in KLK5 (gene looked up) (ARPPWMWVL; listed as Homo sapiens) [compound 247] | BRCA, GBC, HNSCC, OSCAR | +++ |
| 199: peptide found in MSLN (gene looked up) (REIDESLIFY; listed as Homo sapiens) [compound 199] | NSCLC | ++ |
| 307: peptide found in ESR1 (gene looked up) (LPYGPGSEAAAF; listed as Homo sapiens) [compound 307] | BRCA, UEC | +++ |
| 90: peptide found in ETV1 (gene looked up) (KVAGERYVYK; listed as Homo sapiens) [compound 90] | CCC, UEC | ++ |
| 63: peptide found in EYA2 (gene looked up) (MMEEMIFNL; listed as Homo sapiens) [compound 63] | UBC | ++ |
| 77: peptide found in CYP2W1 (gene looked up) (RYGPVFTV; listed as Homo sapiens) [compound 77] | CCC, GC | +++ |
| 120: peptide found in ETV1 (gene looked up) (RPAMNYDKL; listed as Homo sapiens) [compound 120] | CRC | ++ |
| 226: peptide found in MELK (gene looked up) (QVDPKKRISM; listed as Homo sapiens) [compound 226] | BRCA, NHL, NSCLC, SCLC | ++ |
| 395: peptide found in MSLN (gene looked up) (VLLPRLVSC; listed as Homo sapiens) [compound 395] | NSCLC | ++ |
| 273: peptide found in MSLN (gene looked up) (RVNAIPFTY; listed as Homo sapiens) [compound 273] | GBC | ++ |
| 321: peptide found in LILRB4 (gene looked up) (SPMDTFLLI; listed as Homo sapiens) [compound 321] | AML, BRCA, CLL, CRC, GBC, GBM, GC, HCC, HNSCC, MEL, NHL, NSCLC, OSCAR, PACA, PRCA, RCC, SCLC, UBC, UEC | + |
| 121: peptide found in EYA2 (gene looked up) (VPNQSSESL; listed as Homo sapiens) [compound 121] |  | +++ |
| 238: peptide found in MUC16 (gene looked up) (PLLVLFTI; listed as Homo sapiens) [compound 238] |  | +++ |
| 372: peptide found in MYO3B (gene looked up) (IPRNPPPTLL; listed as Homo sapiens) [compound 372] |  | +++ |
| 159: peptide found in MSLN (gene looked up) (VLKHKLDEL; listed as Homo sapiens) [compound 159] |  | ++ |
| 91: peptide found in ETV1 (gene looked up) (RSLRYYYEK; listed as Homo sapiens) [compound 91] |  | ++ |
| 163: peptide found in MUC16 (gene looked up) (QGLLRPVF; listed as Homo sapiens) [compound 163] |  | +++ |

From patent US20210340217A1, “NOVEL PEPTIDES AND COMBINATION OF PEPTIDES FOR USE IN IMMUNOTHERAPY AGAINST OVARIAN CANCER AND OTHER CANCERS” (Immatics Biotechnologies GmbH, priority 2017, published 2021)
